In article PMC7658364:
No constants are given. Whether binding was seen depends on the method and setting. Binding seen in cells or lysates may run through a third protein. Some results given as binding are weak or reduced against the parent protein; the word gives no strength.

Biological target: T1, ER membrane protein complex subunit 6 (EMC6) (mouse (endogenous in pancreatic tissue of PRSS1Tg mice)) (UniProt Q9CQW0)
T1 sequence: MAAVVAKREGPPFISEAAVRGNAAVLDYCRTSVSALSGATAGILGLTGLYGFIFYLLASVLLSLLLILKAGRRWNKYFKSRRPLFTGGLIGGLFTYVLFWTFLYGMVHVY
Test: co-IP; pancreatic tissue lysate of six PRSS1Tg AP mice, pre-cleared with rabbit IgG and A/G beads; immunoprecipitated with anti-EMC6 antibody overnight at 4 °C, A/G beads; immunoblotted for EMC6 and APAF1; rabbit IgG as negative control

binding: binds
Substance: apoptotic peptidase activating factor 1 (APAF1) (from UniProt O88879-1 1-1249)
